PubChem BioAssay AID504804 | Drosophila RNAi Screening Center – 2011

Test: 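Knock-downs shielding fly cells from apoptosis caused by DNA damage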 (primary screen)
Cells: Drosophila Kc cells
Reagent: long dsRNA against Drosophila genes, 0.5 µg dsRNA per well
Duration: 96 h (48 h knock-down, then 48 h drug)
Treatment: doxorubicin 5 µg/ml for 48 h, added 48 h after dsRNA
Measured: 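Luminescent ATP counts per replicate, not normalised, reflecting viable cells after 48 h dsRNA knock-down followed by 48 h of 5 µg/ml doxorubicin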
Direction: raw ATP luminescence: higher = more viable cells, protection from doxorubicin
Hit rule: 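z-score of 2 or more over plate mean in both duplicates, retained only when retests and separate dsRNAs confirm the protection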
The screen tested about 19,000 reagents; below is a random part of those with a known target gene and a result. Of all reagents, 47 (0.25%) were called active. 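Signals are raw, not normalised; exact z-scores behind calls not deposited; actives needed confirmation, so some wells reaching 2 SD are inactive.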 The numbers tell different reagents against one gene apart. A plus sign joins genes that one reagent is predicted to hit.

target | reagent | raw ATP luminescence, replicate 1 | raw ATP luminescence, replicate 2 | Call
CG4860 | 1 | 46327 | 28280 | inactive
CG12065 | 1 | 54430 | 57350 | inactive
CG11970 | 1 | 53307 | 30057 | inactive
CG15376 (retired record) | 1 | 23510 | 31470 | inactive
ND-30 | 1 | 61003 | 48017 | inactive
ine | 1 | 96443 | 60983 | inactive
Fer2 | 1 | 93760 | 80020 | inactive
syd | 1 | 28190 | 33120 | inactive
CG31233 | 1 | 70910 | 54130 | inactive
CG5390 | 1 | 42950 | 81927 | inactive
CG9522 | 1 | 3.53e5 | 3.46e5 | inactive
Usp47 | 1 | 35510 | 45127 | inactive
Vsx1 | 1 | 24960 | 41780 | inactive
Vsx1 | 2 | 11700 | 15830 | inactive
Blm | 1 | 43317 | 34407 | inactive
CG42260 | 1 | 65853 | 49187 | inactive
CG42260 | 2 | 71900 | 52560 | inactive
CG42260 | 3 | 61903 | 61717 | inactive
ATP8 (retired record) | 1 | 3.53e5 | 3.74e5 | inactive
CG11437 | 1 | 64487 | 70153 | inactive
CG5968 | 1 | 32863 | 42380 | inactive
CG13127 | 1 | 42457 | 59940 | inactive
CG2747 | 1 | 53067 | 56557 | inactive
Ufd1 | 1 | 38197 | 38463 | inactive
CG42821 + CG42822 | 1 | 2.20e5 | 2.55e5 | inactive
CG42821 + CG42822 | 2 | 1.90e5 | 2.40e5 | inactive
Nup93-2 | 1 | 78853 | 32670 | inactive
sut4 | 1 | 75603 | 69317 | inactive
vn | 1 | 50993 | 61933 | inactive
CG9664 | 1 | 1.29e5 | 86340 | inactive
Mpp6 | 1 | 54340 | 45873 | inactive
polyph | 1 | 47700 | 81113 | inactive
ind | 1 | 24407 | 18157 | inactive
Trhn | 1 | 90410 | 66040 | inactive
CG12974 | 1 | 49600 | 50937 | inactive
CG14715 | 1 | 54790 | 29843 | inactive
sphinx1 | 1 | 82300 | 93903 | inactive
mdu | 1 | 1.02e5 | 1.98e5 | inactive
Frl | 1 | 66307 | 77047 | inactive
Frl | 2 | 36387 | 27277 | inactive
Frl | 3 | 35760 | 35560 | inactive
DIP1 | 1 | 3.12e5 | 3.02e5 | inactive
MED22 | 1 | 40670 | 52210 | inactive
Odj | 1 | 43833 | 41250 | inactive
CG6813 | 1 | 69607 | 67557 | inactive
MED15 | 1 | 66147 | 42163 | inactive
CG2961 | 1 | 3.34e5 | 2.98e5 | inactive
eIF4H1 | 1 | 2.09e5 | 2.16e5 | inactive
CG33325 | 1 | 71663 | 79667 | inactive
CG9427 | 1 | 55777 | 18397 | inactive
CG6602 | 1 | 72660 | 74130 | inactive
Atxn7 | 1 | 92307 | 64567 | inactive
CG11227 | 1 | 3.03e5 | 3.14e5 | inactive
CG17646 | 1 | 1.42e5 | 82600 | inactive
Pxn | 1 | 87570 | 74490 | inactive
CG31278 | 1 | 61247 | 51417 | inactive
ec | 1 | 2.76e5 | 2.63e5 | inactive
ec | 2 | 2.47e5 | 2.59e5 | inactive
ec | 3 | 34430 | 41800 | inactive
dpp | 1 | 3.27e5 | 3.25e5 | inactive
dpp | 2 | 3.09e5 | 3.11e5 | inactive
Grip71 | 1 | 46827 | 41330 | inactive
eRF1 | 1 | 24850 | 30047 | inactive
fd3F (retired record) | 1 | 18240 | 17300 | inactive
Ctr1A | 1 | 33010 | 39810 | inactive
CG4669 | 1 | 30903 | 30613 | inactive
CG18304 | 1 | 22707 | 31530 | inactive
Srp54 | 1 | 56477 | 48927 | inactive
Acsf2 | 1 | 28827 | 31517 | inactive
Nin | 1 | 1.08e5 | 55597 | inactive
snama | 1 | 51077 | 56217 | inactive
CG4269 | 1 | 65163 | 48873 | inactive
pho | 1 | 48880 | 47290 | inactive
CG3213 | 1 | 19613 | 26680 | inactive
MetRS-m | 1 | 64657 | 27970 | inactive
MetRS-m | 2 | 78460 | 74760 | inactive
CG46301 | 1 | 66200 | 64937 | inactive
kek1 | 1 | 69510 | 62600 | inactive
CG31068 | 1 | 2.24e5 | 2.00e5 | inactive
Adgf-A2 | 1 | 88487 | 80773 | inactive
Mco3 | 1 | 63300 | 56150 | inactive
Dnali1 | 1 | 52180 | 28937 | inactive
Svip | 1 | 1.52e5 | 1.59e5 | inactive
sowi | 1 | 76780 | 63327 | inactive
Ctns | 1 | 83240 | 73820 | inactive
nompB | 1 | 34243 | 37713 | inactive
nompB | 2 | 48533 | 56613 | inactive
hec | 1 | 3.54e5 | 3.27e5 | inactive
CrebB | 1 | 2.51e5 | 2.40e5 | inactive
scny | 1 | 48293 | 70967 | inactive
scny | 2 | 65367 | 64780 | inactive
Dll | 1 | 35183 | 56750 | inactive
CG30271 | 1 | 50287 | 47700 | inactive
Vps45 | 1 | 57640 | 57373 | inactive
bnl | 1 | 1.85e5 | 1.78e5 | inactive
bnl | 2 | 31417 | 34450 | inactive
Cpr67Fb | 1 | 85513 | 77800 | inactive
lectin-46Cb | 1 | 37920 | 73697 | inactive
Hdc | 1 | 64060 | 57753 | inactive
Fbp2 | 1 | 86880 | 55430 | inactive
CG31805 | 1 | 2.84e5 | 2.49e5 | inactive
tow | 1 | 37220 | 45157 | inactive
CG12470 | 1 | 48120 | 37740 | inactive
GstZ2 | 1 | 57977 | 32027 | inactive
CG31431 | 1 | 59390 | 65890 | inactive
CG33221 (retired record) | 1 | 2.09e5 | 2.42e5 | inactive
CG12229 | 1 | 38577 | 38920 | inactive

Part of the list above in another layout:
{"target":"sphinx1","reagent":1,"raw ATP luminescence, replicate 1":82300,"raw ATP luminescence, replicate 2":93903,"Call":"inactive"}
{"target":"mdu","reagent":1,"raw ATP luminescence, replicate 1":1.02e5,"raw ATP luminescence, replicate 2":1.98e5,"Call":"inactive"}
{"target":"Frl","reagent":1,"raw ATP luminescence, replicate 1":66307,"raw ATP luminescence, replicate 2":77047,"Call":"inactive"}
{"target":"Frl","reagent":2,"raw ATP luminescence, replicate 1":36387,"raw ATP luminescence, replicate 2":27277,"Call":"inactive"}
{"target":"Frl","reagent":3,"raw ATP luminescence, replicate 1":35760,"raw ATP luminescence, replicate 2":35560,"Call":"inactive"}
{"target":"DIP1","reagent":1,"raw ATP luminescence, replicate 1":3.12e5,"raw ATP luminescence, replicate 2":3.02e5,"Call":"inactive"}
{"target":"MED22","reagent":1,"raw ATP luminescence, replicate 1":40670,"raw ATP luminescence, replicate 2":52210,"Call":"inactive"}
{"target":"Odj","reagent":1,"raw ATP luminescence, replicate 1":43833,"raw ATP luminescence, replicate 2":41250,"Call":"inactive"}
{"target":"CG6813","reagent":1,"raw ATP luminescence, replicate 1":69607,"raw ATP luminescence, replicate 2":67557,"Call":"inactive"}
{"target":"MED15","reagent":1,"raw ATP luminescence, replicate 1":66147,"raw ATP luminescence, replicate 2":42163,"Call":"inactive"}
{"target":"CG2961","reagent":1,"raw ATP luminescence, replicate 1":3.34e5,"raw ATP luminescence, replicate 2":2.98e5,"Call":"inactive"}
{"target":"eIF4H1","reagent":1,"raw ATP luminescence, replicate 1":2.09e5,"raw ATP luminescence, replicate 2":2.16e5,"Call":"inactive"}
{"target":"CG33325","reagent":1,"raw ATP luminescence, replicate 1":71663,"raw ATP luminescence, replicate 2":79667,"Call":"inactive"}
{"target":"CG9427","reagent":1,"raw ATP luminescence, replicate 1":55777,"raw ATP luminescence, replicate 2":18397,"Call":"inactive"}
{"target":"CG6602","reagent":1,"raw ATP luminescence, replicate 1":72660,"raw ATP luminescence, replicate 2":74130,"Call":"inactive"}
{"target":"Atxn7","reagent":1,"raw ATP luminescence, replicate 1":92307,"raw ATP luminescence, replicate 2":64567,"Call":"inactive"}
{"target":"CG11227","reagent":1,"raw ATP luminescence, replicate 1":3.03e5,"raw ATP luminescence, replicate 2":3.14e5,"Call":"inactive"}
